Source: PubChem BioAssay AID248 (DTP/NCI, 2004)
The list is a part of this screen's results and no random one: it covers a few groups of compounds. Not every dose and run of a compound is shown. T/C gives the treated animals as a percentage of the vehicle group. Some entries give survivors of the animals treated and no T/C: the source files T/C as zero there, which appears to mark a toxic dose or a test without result, not a measured value. Some survivor counts are full or nearly so, which does not show that the dose was tolerated: the source hardly ever lists a survival T/C far under the control, and the zero likely stands for such cases as well. Counts of survivors are from the toxicity check (mostly the fifth day) where no day follows; animals may have died later. Schedule codes are those of the source, read here as Q, the interval in days (D) or hours (H), X, the number of doses. Some schedules carry Z or #; the key to these is not given. Some doses were run more than once; their values stand side by side, smallest first. Where survival is the endpoint, this PubChem deposit counts one and a half times the control or more as active, and values a quarter to a half above the control carry no call in these data; other NCI protocols may use other cut-offs. Brackets with × say how often a value occurs here. Some T/C values are followed by the survivors on the day toxicity was checked, most often the fifth; where neither a count nor a note follows, no animal had died by that day. Some T/C values are marked as having no survivor count here; that says nothing about deaths at the dose.

Test system: L1210 leukemia ip in BDF1 mice, survival T/C
Assay: NCI In Vivo Anticancer Drug Screen. Data for tumor model L1210 Leukemia (intraperitoneal) in B6D2F1 (BDF1) mice
Conditions: vehicle: saline, higher T/C = longer survival
[1] = T/C endpoint: mean survival time, dose: 18.0 mg/kg/injection, schedule: Q01DX001 (ip)
[2] = T/C endpoint: mean survival time, dose: 32.0 mg/kg/injection, schedule: Q01DX009 (ip)

## CN(N=O)C(=N)N[N+](=O)[O-]
T/C endpoint: mean survival time, dose: 0.16 mg/kg/injection, schedule: Q#A X Z (ip)
  T/C: 105 % of control
T/C endpoint: mean survival time, dose: 0.31 mg/kg/injection, schedule: Q#A X Z (ip)
  T/C: 110 % of control
T/C endpoint: mean survival time, dose: 0.62 mg/kg/injection, schedule: Q#A X Z (ip)
  T/C: 111 % of control
T/C endpoint: mean survival time, dose: 1.25 mg/kg/injection, schedule: Q#A X Z (ip)
  T/C: 108 % of control
T/C endpoint: mean survival time, dose: 1.9 mg/kg/injection, schedule: Q03DX006 (ip)
  T/C: 106 % of control
T/C endpoint: mean survival time, dose: 2.5 mg/kg/injection, schedule: Q#A X Z (ip)
  T/C: 131 % of control
T/C endpoint: mean survival time, dose: 3.8 mg/kg/injection, schedule: Q03DX006 (ip)
  T/C: 105 % of control
T/C endpoint: mean survival time, dose: 4.5 mg/kg/injection, schedule: Q01DX001 (ip)
  T/C: 105 and 106 % of control
T/C endpoint: mean survival time, dose: 5.0 mg/kg/injection, schedule: Q01DX006 (iv)
  T/C: 114 % of control
T/C endpoint: mean survival time, dose: 5.0 mg/kg/injection, schedule: Q01DX Z (im)
  T/C: 108 % of control
T/C endpoint: mean survival time, dose: 5.0 mg/kg/injection, schedule: Q01DX Z (ip)
  T/C: 138 % of control
T/C endpoint: mean survival time, dose: 5.0 mg/kg/injection, schedule: Q01DX Z (oral)
  T/C: 105 % of control
T/C endpoint: mean survival time, dose: 5.0 mg/kg/injection, schedule: Q01DX Z (sc)
  T/C: 114 % of control
T/C endpoint: mean survival time, dose: 5.0 mg/kg/injection, schedule: Q#A X Z (ip)
  T/C: 138 % of control
T/C endpoint: mean survival time, dose: 7.5 mg/kg/injection, schedule: Q03DX006 (ip)
  T/C: 117 % of control
T/C endpoint: mean survival time, dose: 8.0 mg/kg/injection, schedule: Q01DX009 (ip)
  T/C: 126 and 135 % of control
T/C endpoint: mean survival time, dose: 9.0 mg/kg/injection, schedule: Q01DX001 (ip)
  T/C: 101 and 119 % of control
T/C endpoint: mean survival time, dose: 10.0 mg/kg/injection, schedule: Q01DX006 (iv)
  T/C: 111 % of control
T/C endpoint: mean survival time, dose: 10.0 mg/kg/injection, schedule: Q01DX Z (im)
  T/C: 114 % of control
T/C endpoint: mean survival time, dose: 10.0 mg/kg/injection, schedule: Q01DX Z (ip)
  T/C: 147 % of control
T/C endpoint: mean survival time, dose: 10.0 mg/kg/injection, schedule: Q01DX Z (oral)
  T/C: 103 % of control
T/C endpoint: mean survival time, dose: 10.0 mg/kg/injection, schedule: Q01DX Z (sc)
  T/C: 115 % of control
T/C endpoint: mean survival time, dose: 10.0 mg/kg/injection, schedule: Q#A X Z (ip)
  T/C: 158 % of control
T/C endpoint: mean survival time, dose: 15.0 mg/kg/injection, schedule: Q03DX006 (ip)
  T/C: 127 % of control
T/C endpoint: mean survival time, dose: 16.0 mg/kg/injection, schedule: Q01DX009 (ip)
  T/C: 130 and 148 % of control
[1]
  T/C: 103 % of control
  survivor count: 3 of 6
T/C endpoint: mean survival time, dose: 20.0 mg/kg/injection, schedule: Q01DX006 (iv)
  T/C: 108 % of control
T/C endpoint: mean survival time, dose: 20.0 mg/kg/injection, schedule: Q01DX Z (im)
  T/C: 127 % of control
T/C endpoint: mean survival time, dose: 20.0 mg/kg/injection, schedule: Q01DX Z (ip)
  T/C: 150 % of control
T/C endpoint: mean survival time, dose: 20.0 mg/kg/injection, schedule: Q01DX Z (oral)
  T/C: 123 % of control
T/C endpoint: mean survival time, dose: 20.0 mg/kg/injection, schedule: Q01DX Z (sc)
  T/C: 123 % of control
T/C endpoint: mean survival time, dose: 20.0 mg/kg/injection, schedule: Q#A X Z (ip)
  T/C: 109 % of control
T/C endpoint: mean survival time, dose: 30.0 mg/kg/injection, schedule: Q03DX006 (ip)
  T/C: 151 % of control
[2]
  T/C: 103 % of control
  survivor count: 6 of 6
T/C endpoint: mean survival time, dose: 35.0 mg/kg/injection, schedule: Q01DX001 (ip)
  T/C: 125 and 127 % of control
T/C endpoint: mean survival time, dose: 35.0 mg/kg/injection, schedule: Q07DX003 (ip)
  T/C: 113 % of control
T/C endpoint: mean survival time, dose: 40.0 mg/kg/injection, schedule: Q01DX006 (iv)
  T/C: 109 % of control
T/C endpoint: mean survival time, dose: 40.0 mg/kg/injection, schedule: Q01DX Z (im)
  T/C: 108 % of control
T/C endpoint: mean survival time, dose: 40.0 mg/kg/injection, schedule: Q01DX Z (ip)
  T/C: 105 % of control
T/C endpoint: mean survival time, dose: 40.0 mg/kg/injection, schedule: Q01DX Z (oral)
  T/C: 108 % of control
T/C endpoint: mean survival time, dose: 40.0 mg/kg/injection, schedule: Q01DX Z (sc)
  T/C: 121 % of control
T/C endpoint: mean survival time, dose: 60.0 mg/kg/injection, schedule: Q03DX006 (ip)
  T/C: 140 % of control
T/C endpoint: mean survival time, dose: 64.0 mg/kg/injection, schedule: Q01DX009 (ip)
  survivor count: 3 of 6 and 6 of 6
T/C endpoint: mean survival time, dose: 70.0 mg/kg/injection, schedule: Q01DX001 (ip)
  T/C: 115 % of control (2×)
T/C endpoint: mean survival time, dose: 70.0 mg/kg/injection, schedule: Q07DX003 (ip)
  T/C: 134 % of control
T/C endpoint: mean survival time, dose: 80.0 mg/kg/injection, schedule: Q01DX006 (iv)
  T/C: 108 % of control [4 of 6 alive]
T/C endpoint: mean survival time, dose: 80.0 mg/kg/injection, schedule: Q01DX Z (oral)
  survivor count: 6 of 6
T/C endpoint: mean survival time, dose: 80.0 mg/kg/injection, schedule: Q01DX Z (sc)
  T/C: 110 % of control
T/C endpoint: mean survival time, dose: 120.0 mg/kg/injection, schedule: Q03DX006 (ip)
  T/C: 103 % of control
T/C endpoint: mean survival time, dose: 140.0 mg/kg/injection, schedule: Q01DX001 (ip)
  T/C: 107 and 114 % of control [5 of 6 alive]
T/C endpoint: mean survival time, dose: 140.0 mg/kg/injection, schedule: Q07DX003 (ip)
  T/C: 101 % of control
T/C endpoint: mean survival time, dose: 160.0 mg/kg/injection, schedule: Q01DX006 (iv)
  T/C: 110 % of control [5 of 6 alive]
T/C endpoint: mean survival time, dose: 160.0 mg/kg/injection, schedule: Q01DX Z (oral)
  survivor count: 6 of 6
T/C endpoint: mean survival time, dose: 160.0 mg/kg/injection, schedule: Q01DX Z (sc)
  T/C: 103 % of control
T/C endpoint: mean survival time, dose: 280.0 mg/kg/injection, schedule: Q01DX001 (ip)
  T/C: 89 and 113 % of control
T/C endpoint: mean survival time, dose: 280.0 mg/kg/injection, schedule: Q07DX003 (ip)
  survivor count: 6 of 6
T/C endpoint: mean survival time, dose: 320.0 mg/kg/injection, schedule: Q01DX Z (sc)
  T/C: 90 % of control [4 of 6 alive]
T/C endpoint: mean survival time, dose: 640.0 mg/kg/injection, schedule: Q01DX Z (sc)
  survivor count: 0 of 6
T/C endpoint: mean survival time, dose: 1280.0 mg/kg/injection, schedule: Q01DX Z (sc)
  survivor count: 0 of 6
T/C endpoint: median survival time, dose: 2.5 mg/kg/injection, schedule: Q01DX009 (ip)
  T/C: 100 % of control
T/C endpoint: median survival time, dose: 5.0 mg/kg/injection, schedule: Q01DX009 (ip)
  T/C: 120 % of control
T/C endpoint: median survival time, dose: 10.0 mg/kg/injection, schedule: Q01DX009 (ip)
  T/C: 120 % of control
T/C endpoint: median survival time, dose: 20.0 mg/kg/injection, schedule: Q01DX009 (ip)
  T/C: 120 % of control [7 of 8 alive]
T/C endpoint: median survival time, dose: 40.0 mg/kg/injection, schedule: Q01DX009 (ip)
  survivor count: 8 of 8
T/C endpoint: median survival time, dose: 80.0 mg/kg/injection, schedule: Q01DX009 (ip)
  survivor count: 8 of 8

## CS(=O)(=O)N[C@@H](CCl)[C@H](CCl)NS(C)(=O)=O
T/C endpoint: mean survival time, dose: 100.0 mg/kg/injection, schedule: Q01DX001 (ip)
  T/C: 100 % of control
T/C endpoint: mean survival time, dose: 200.0 mg/kg/injection, schedule: Q01DX001 (ip)
  T/C: 96 % of control
T/C endpoint: mean survival time, dose: 400.0 mg/kg/injection, schedule: Q01DX001 (ip)
  T/C: 102 % of control

## COP(C)(=O)OC(N)(N)SC (stereo not drawn)
T/C endpoint: mean survival time, dose: 100.0 mg/kg/injection, schedule: Q04DX002 (ip)
  T/C: 93 % of control [survivor count not shown]
T/C endpoint: mean survival time, dose: 200.0 mg/kg/injection, schedule: Q04DX002 (ip)
  T/C: 96 % of control [survivor count not shown]
T/C endpoint: mean survival time, dose: 400.0 mg/kg/injection, schedule: Q04DX002 (ip)
  T/C: 101 % of control [survivor count not shown]
